Measurements published in the supplement of paper PMC12067093, “Discovery and optimisation of a covalent ligand for TRIM25 and its application to targeted protein ubiquitination” (Chemical Science, 2025).
The list shows a part of the results.

Chains of the proteins cited; added tags and fusions are not shown. Lines headed by an entry give the natural chain unless they say otherwise; changes in a name come on top.
UniProt P17480: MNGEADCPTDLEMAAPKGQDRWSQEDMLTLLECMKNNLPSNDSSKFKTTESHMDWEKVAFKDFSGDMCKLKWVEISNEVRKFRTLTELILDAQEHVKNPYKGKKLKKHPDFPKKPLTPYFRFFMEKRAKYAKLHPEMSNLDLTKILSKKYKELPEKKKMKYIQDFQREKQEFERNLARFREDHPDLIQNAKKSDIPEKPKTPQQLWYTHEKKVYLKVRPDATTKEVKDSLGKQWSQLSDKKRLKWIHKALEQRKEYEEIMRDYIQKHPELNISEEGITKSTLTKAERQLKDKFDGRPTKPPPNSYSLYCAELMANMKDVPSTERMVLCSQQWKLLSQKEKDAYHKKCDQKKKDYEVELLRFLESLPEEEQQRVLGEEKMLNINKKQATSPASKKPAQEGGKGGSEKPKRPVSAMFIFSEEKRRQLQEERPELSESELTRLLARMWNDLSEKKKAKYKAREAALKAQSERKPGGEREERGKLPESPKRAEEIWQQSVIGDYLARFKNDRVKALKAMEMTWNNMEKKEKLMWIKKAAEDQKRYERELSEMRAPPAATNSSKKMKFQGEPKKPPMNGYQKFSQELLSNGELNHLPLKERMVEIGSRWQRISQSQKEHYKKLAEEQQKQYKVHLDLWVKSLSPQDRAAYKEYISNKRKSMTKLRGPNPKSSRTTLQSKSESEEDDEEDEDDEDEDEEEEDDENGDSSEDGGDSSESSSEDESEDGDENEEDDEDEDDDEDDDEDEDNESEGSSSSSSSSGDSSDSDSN
UniProt O60701: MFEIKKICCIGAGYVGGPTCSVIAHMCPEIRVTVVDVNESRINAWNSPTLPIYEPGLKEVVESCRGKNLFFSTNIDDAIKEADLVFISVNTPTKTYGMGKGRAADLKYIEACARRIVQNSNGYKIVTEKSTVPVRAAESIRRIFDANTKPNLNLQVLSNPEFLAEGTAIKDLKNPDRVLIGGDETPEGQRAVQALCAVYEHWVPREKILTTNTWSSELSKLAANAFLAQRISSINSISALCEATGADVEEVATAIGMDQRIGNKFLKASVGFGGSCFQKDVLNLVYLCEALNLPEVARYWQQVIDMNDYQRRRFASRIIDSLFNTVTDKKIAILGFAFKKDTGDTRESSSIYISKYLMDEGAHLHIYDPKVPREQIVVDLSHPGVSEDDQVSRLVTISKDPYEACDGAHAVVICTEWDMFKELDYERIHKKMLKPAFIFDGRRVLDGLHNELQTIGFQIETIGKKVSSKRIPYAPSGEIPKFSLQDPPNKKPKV
UniProt Q13107: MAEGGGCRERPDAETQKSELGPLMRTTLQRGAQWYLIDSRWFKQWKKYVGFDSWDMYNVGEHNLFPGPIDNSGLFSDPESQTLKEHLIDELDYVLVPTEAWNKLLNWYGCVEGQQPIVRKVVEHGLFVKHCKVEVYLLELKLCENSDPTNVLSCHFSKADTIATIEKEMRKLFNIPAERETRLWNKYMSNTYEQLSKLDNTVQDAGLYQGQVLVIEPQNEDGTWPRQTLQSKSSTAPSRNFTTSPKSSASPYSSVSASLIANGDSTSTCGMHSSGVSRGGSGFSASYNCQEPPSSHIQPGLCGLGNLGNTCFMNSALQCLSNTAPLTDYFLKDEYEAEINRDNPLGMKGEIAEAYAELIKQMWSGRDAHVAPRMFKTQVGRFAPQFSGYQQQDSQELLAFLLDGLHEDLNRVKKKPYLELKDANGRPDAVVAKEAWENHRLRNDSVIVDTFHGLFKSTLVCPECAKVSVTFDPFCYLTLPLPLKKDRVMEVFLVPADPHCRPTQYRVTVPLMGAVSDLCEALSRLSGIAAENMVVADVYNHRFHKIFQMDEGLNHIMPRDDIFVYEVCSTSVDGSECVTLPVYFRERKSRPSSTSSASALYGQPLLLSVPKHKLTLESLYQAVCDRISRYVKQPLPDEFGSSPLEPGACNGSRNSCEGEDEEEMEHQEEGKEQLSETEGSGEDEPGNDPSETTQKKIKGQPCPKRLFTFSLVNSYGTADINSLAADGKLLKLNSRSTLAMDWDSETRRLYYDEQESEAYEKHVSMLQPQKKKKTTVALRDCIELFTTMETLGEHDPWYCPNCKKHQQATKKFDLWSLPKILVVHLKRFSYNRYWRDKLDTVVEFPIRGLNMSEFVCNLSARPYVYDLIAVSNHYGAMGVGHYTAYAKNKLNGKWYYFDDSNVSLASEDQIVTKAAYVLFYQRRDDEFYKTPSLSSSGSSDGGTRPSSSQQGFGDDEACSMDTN
UniProt Q96PU4: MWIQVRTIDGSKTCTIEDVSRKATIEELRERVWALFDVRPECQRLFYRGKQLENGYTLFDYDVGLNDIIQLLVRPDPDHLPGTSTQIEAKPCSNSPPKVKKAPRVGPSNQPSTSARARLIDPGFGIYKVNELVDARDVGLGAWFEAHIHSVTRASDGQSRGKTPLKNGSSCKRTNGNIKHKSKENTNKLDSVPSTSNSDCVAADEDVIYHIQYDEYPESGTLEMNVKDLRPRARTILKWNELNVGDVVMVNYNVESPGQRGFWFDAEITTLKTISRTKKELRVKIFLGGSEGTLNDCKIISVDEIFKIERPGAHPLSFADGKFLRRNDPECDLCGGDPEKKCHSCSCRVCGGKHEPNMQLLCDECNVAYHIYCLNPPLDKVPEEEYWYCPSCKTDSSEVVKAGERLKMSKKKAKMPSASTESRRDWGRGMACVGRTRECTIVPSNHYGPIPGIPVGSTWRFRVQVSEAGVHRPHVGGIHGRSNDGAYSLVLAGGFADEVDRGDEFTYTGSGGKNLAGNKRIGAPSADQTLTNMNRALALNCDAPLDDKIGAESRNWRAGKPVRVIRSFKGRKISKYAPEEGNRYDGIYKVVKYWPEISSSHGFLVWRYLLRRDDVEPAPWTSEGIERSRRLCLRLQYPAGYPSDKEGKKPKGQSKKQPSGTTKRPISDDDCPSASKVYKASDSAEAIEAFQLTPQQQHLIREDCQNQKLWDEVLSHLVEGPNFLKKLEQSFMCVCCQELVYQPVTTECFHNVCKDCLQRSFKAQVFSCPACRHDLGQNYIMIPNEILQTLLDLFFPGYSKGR
UniProt Q9UPU5: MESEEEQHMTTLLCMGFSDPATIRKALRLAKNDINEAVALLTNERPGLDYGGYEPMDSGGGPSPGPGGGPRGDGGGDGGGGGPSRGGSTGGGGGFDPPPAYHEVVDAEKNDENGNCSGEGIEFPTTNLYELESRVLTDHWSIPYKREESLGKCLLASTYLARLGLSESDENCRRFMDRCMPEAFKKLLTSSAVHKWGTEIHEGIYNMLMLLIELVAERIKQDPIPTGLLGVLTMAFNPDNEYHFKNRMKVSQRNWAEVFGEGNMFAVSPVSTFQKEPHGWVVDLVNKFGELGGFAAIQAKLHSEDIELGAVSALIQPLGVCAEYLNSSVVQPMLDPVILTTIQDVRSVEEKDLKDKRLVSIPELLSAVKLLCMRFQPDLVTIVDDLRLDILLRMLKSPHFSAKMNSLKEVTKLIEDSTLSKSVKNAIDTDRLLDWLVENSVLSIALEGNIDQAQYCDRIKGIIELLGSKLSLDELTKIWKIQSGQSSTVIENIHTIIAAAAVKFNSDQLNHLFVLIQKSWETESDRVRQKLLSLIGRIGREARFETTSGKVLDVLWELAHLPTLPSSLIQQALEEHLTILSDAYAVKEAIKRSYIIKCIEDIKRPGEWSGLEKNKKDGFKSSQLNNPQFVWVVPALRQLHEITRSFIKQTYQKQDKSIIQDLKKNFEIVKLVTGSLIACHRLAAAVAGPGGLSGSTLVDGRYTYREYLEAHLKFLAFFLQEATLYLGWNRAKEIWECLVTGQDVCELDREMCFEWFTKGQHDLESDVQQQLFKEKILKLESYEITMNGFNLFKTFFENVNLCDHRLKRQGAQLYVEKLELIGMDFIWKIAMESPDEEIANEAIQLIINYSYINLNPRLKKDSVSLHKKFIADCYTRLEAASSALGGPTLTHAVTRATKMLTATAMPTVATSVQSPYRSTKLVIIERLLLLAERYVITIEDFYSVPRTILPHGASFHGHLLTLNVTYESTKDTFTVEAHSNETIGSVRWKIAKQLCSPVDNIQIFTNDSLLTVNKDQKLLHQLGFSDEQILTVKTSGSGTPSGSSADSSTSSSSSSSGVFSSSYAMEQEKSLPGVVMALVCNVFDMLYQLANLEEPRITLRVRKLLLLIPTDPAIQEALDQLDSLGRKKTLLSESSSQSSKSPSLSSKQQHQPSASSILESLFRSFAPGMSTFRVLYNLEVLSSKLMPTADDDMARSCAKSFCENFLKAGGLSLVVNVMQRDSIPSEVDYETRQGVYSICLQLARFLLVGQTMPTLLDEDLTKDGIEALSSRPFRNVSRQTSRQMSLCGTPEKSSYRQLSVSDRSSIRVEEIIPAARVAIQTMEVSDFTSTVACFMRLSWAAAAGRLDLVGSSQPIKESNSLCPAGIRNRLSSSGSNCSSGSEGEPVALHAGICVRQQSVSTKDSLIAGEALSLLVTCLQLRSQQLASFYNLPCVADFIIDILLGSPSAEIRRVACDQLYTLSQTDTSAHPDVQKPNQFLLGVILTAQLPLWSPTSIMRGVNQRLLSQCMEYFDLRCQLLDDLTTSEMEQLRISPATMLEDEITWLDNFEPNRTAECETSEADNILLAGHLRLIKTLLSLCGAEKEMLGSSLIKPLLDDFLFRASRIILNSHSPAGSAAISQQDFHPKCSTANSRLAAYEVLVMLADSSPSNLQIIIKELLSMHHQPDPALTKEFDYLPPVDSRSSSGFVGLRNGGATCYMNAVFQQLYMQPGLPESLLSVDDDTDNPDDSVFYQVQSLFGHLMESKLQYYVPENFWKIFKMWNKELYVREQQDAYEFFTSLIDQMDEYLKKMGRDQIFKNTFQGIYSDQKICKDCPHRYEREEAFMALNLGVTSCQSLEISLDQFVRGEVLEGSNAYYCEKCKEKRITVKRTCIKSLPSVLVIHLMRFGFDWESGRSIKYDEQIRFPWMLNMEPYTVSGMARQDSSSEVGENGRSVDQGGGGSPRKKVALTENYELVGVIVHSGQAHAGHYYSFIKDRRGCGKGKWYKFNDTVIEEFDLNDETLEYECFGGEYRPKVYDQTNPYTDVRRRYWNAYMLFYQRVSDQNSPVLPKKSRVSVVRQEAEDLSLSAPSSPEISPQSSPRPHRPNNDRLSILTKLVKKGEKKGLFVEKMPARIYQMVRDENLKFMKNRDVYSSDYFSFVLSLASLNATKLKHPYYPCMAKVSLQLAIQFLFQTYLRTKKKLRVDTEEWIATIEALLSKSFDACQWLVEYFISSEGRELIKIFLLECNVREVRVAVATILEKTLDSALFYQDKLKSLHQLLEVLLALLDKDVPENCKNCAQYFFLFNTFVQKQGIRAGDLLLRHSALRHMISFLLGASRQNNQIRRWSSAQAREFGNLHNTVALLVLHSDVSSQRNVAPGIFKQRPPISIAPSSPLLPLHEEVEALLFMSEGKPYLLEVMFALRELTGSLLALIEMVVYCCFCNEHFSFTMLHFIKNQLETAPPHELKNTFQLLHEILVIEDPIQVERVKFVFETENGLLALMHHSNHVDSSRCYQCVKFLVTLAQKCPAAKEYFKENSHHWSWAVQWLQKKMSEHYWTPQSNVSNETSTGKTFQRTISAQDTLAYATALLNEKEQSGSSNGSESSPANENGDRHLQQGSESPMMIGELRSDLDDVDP
UniProt Q96T88: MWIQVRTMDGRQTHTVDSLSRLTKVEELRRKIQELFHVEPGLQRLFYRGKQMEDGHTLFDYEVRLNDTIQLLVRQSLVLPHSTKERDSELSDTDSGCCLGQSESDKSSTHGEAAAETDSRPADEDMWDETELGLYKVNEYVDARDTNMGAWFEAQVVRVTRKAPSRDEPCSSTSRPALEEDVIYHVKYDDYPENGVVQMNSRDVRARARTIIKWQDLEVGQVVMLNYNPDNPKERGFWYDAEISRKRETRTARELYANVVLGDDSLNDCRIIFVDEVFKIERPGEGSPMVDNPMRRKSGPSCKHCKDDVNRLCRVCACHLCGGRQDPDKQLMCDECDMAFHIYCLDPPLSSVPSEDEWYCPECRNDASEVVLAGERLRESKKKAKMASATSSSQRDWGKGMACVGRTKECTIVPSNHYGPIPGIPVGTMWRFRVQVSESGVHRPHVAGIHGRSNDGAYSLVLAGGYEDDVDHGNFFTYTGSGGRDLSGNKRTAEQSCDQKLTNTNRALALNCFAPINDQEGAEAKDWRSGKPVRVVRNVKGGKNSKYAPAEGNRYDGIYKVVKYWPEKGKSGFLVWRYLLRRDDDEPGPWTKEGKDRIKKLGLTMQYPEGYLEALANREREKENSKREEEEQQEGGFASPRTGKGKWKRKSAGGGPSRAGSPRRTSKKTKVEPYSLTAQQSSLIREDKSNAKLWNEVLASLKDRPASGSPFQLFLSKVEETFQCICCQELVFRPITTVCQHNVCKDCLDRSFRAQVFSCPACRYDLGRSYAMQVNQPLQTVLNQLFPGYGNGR

Compound: Cc1cc(ccc1-c1ccccc1)C(=O)N1CCCN(CC1)C(=O)CCl [compound 10]
Assay: probe-labelled cysteine peptide fold change vs DMSO (competition) (log2 fold change); higher = less target engagement (more negative = stronger competition)
Details: THP-1, incubation time: 4 h
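Note: competitive profiling in live THP-1 cells: cysteine peptides tagged with an iodoacetamide desthiobiotin (IA-DTB) probe, intensity after compound treatment relative to DMSO-treated cells.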

Row | Target | probe-labelled cysteine peptide fold change (10 µM) | probe-labelled cysteine peptide fold change (50 µM)
1 | UBTF_P17480_33_WSQEDMLTLLECMK (UniProt P17480) | 0.198 | -0.000557
2 | USP20_Q9Y2K6_393_SSSRPCSPVHHHEGHAK (UniProt Q9Y2K6) | -0.214 | -0.617
3 | UPF1_Q92900_531_QGNGPVLVCAPSNIAVDQLTEK (UniProt Q92900) | 0.158 | 0.112
4 | UGGT1_Q9NYU2_880_MDFILSHAVYCR (UniProt Q9NYU2) | 0.117 | 0.39
5 | USP19_O94966_1042_ELECAEDPGSAGEAAR (UniProt O94966) | 0.085 | 0.4
6 | UNC13B_O14795_1352_QCAVLDLALDTIK (UniProt O14795) | -0.00309 | 0.0603
7 | UFL1_O94874_32_NCIEIVNK (UniProt O94874) | 0.0252 | 0.178
8 | UGDH_O60701_9+20_ICCIGAGYVGGPTCSVIAHMCPEIR (UniProt O60701) | 0.0362 | 0.0457
9 | USP16_Q9Y5T5_726_FPEILDLAPFCTLK (UniProt Q9Y5T5) | -0.0354 | -0.281
10 | UFD1_Q92890_25_CFSVSMLAGPNDRSDVEK (UniProt Q92890) | 0.194 | -0.192
11 | USP19_O94966_1084_AGHFTLDQCLNLFTRPEVLAPEEAWYCPQCK (UniProt O94966) | 0.127 | -0.0369
12 | USP4_Q13107_500_DRVMEVFLVPADPHCRPTQYR (UniProt Q13107) | 0.0259 | -0.0407
13 | UGDH_O60701_27_ICCIGAGYVGGPTCSVIAHMCPEIR (UniProt O60701) | 0.146 | 0.000622
14 | USP14_P54578_257_CTESEEEEVTK (UniProt P54578) | -0.254 | -0.167
15 | UHRF1BP1_Q6BDS2_336_LDLHICDDSQSREPGVSANR (UniProt Q6BDS2) | -0.0091 | 0.182
16 | UHRF2_Q96PU4_297_IFLGGSEGTLNDCK (UniProt Q96PU4) | 0.179 | 0.188
17 | UHRF2_Q96PU4_704_ASDSAEAIEAFQLTPQQQHLIREDCQNQK (UniProt Q96PU4) | 0.193 | -0.2

Full records from above. Values in the order: probe-labelled cysteine peptide fold change (10 µM) | probe-labelled cysteine peptide fold change (50 µM)
USP19_O94966_1042_ELECAEDPGSAGEAAR (UniProt O94966) in the list: 0.085 | 0.4
UBTF_P17480_33_WSQEDMLTLLECMK (UniProt P17480) in the list: 0.198 | -0.000557

The listing continues.

Row | Target | probe-labelled cysteine peptide fold change (10 µM) | probe-labelled cysteine peptide fold change (50 µM)
18 | USP7_Q93009_721_IRDLLPVMCDR (UniProt Q93009) | 0.0128 | 0.0048
19 | UNC119_Q13432_190_NTCEHIYDFPPLSEELISEMIR (UniProt Q13432) | -0.236 | -0.312
20 | UQCRC1_P31930_453_YIYDQCPAVAGYGPIEQLPDYNR (UniProt P31930) | -0.0717 | 0.167
21 | USP15_Q9Y4E8_873_DKLDTLVDFPINDLDMSEFLINPNAGPCR (UniProt Q9Y4E8) | -0.122 | -0.144
22 | UPF2_Q9HAU5_990_LCNSLEESIR (UniProt Q9HAU5) | -0.00764 | -0.0292
23 | USP24_Q9UPU5_1377_LSSSGSNCSSGSEGEPVALHAGICVR (UniProt Q9UPU5) | 0.0337 | 0.075
24 | USP24_Q9UPU5_995_QLCSPVDNIQIFTNDSLLTVNK (UniProt Q9UPU5) | 0.165 | 0.107
25 | USP19_O94966_152_VGVGPLQLEDVDAAFTDTDCVVR (UniProt O94966) | 0.106 | 0.562
26 | UHRF1_Q96T88_497_TAEQSCDQK (UniProt Q96T88) | -0.159 | -0.0803
27 | URB1_O60287_563_AVLLQVICLYQK (UniProt O60287) | 0.022 | 0.0828
28 | USP11_P51784_894_DGHYTTFACNK (UniProt P51784) | -0.051 | -0.393
29 | UHRF1_Q96T88_318+321_VCACHLCGGR (UniProt Q96T88) | -0.0199 | -0.236
30 | UIMC1_Q96RL1_691_SFVSISEATDCLVDFKK (UniProt Q96RL1) | -0.218 | -0.239
31 | USP10_Q14694_456_VQRPCTSTPMIDSFVR (UniProt Q14694) | -0.0395 | -0.00663
32 | UCHL5_Q9Y5K5_191_EGPIDLGACNQDDWISAVRPVIEK (UniProt Q9Y5K5) | -0.138 | 0.11
33 | UBXN4_Q92575_186_SDTATGGESAGHATSSQEPSGCSDQRPAEDLNIR (UniProt Q92575) | -0.176 | -0.295
34 | USP4_Q13107_519_VTVPLMGAVSDLCEALSR (UniProt Q13107) | -0.022 | -0.156
